Laboratory results as given in the supplement of paper PMC10849652.
Some of the results follow.

Sequences of proteins named here, by UniProt entry; tags and fusion partners are left off. A change or cut given only in a name is not applied to a line headed by its entry.
UniProt P43007: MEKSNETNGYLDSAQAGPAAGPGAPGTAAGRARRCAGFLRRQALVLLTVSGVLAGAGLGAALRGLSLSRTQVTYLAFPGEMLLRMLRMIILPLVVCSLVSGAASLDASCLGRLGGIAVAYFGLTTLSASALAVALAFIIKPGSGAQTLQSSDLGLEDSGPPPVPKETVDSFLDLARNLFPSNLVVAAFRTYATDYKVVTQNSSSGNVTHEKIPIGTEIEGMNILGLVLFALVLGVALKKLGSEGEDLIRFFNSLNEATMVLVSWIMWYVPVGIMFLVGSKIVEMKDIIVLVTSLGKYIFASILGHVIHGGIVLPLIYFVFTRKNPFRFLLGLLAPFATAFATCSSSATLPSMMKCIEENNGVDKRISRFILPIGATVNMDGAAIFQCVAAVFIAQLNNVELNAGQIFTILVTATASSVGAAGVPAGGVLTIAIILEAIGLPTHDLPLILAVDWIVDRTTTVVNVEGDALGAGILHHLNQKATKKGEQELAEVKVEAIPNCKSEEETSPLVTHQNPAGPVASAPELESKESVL
UniProt Q0GE19: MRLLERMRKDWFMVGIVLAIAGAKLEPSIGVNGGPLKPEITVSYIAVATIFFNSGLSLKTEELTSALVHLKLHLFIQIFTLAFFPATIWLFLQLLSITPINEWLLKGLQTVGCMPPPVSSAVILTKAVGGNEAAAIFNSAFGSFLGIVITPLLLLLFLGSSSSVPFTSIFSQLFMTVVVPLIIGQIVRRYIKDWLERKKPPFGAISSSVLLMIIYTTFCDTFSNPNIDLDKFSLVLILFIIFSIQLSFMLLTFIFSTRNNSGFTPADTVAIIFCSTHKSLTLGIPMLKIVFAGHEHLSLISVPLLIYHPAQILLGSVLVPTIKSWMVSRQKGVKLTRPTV
UniProt Q9BRV8: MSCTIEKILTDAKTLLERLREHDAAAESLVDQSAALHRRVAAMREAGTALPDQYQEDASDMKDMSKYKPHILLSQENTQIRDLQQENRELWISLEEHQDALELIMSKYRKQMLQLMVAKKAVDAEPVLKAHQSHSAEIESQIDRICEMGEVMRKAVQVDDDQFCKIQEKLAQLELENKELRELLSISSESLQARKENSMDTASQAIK
UniProt O60779: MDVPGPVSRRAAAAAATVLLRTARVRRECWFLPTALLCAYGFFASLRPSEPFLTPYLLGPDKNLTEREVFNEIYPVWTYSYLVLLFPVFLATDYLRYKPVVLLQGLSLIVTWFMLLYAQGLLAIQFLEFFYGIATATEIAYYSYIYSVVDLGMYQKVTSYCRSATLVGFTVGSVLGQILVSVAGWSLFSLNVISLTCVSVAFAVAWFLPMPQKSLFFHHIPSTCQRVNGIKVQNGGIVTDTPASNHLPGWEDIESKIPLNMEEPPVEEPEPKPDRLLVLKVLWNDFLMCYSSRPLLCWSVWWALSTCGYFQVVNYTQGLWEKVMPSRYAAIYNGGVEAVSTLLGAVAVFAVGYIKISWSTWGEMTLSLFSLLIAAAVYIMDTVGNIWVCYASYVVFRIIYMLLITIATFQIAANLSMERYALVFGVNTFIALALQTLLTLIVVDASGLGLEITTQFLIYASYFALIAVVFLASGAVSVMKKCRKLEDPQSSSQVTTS
UniProt Q8IW75: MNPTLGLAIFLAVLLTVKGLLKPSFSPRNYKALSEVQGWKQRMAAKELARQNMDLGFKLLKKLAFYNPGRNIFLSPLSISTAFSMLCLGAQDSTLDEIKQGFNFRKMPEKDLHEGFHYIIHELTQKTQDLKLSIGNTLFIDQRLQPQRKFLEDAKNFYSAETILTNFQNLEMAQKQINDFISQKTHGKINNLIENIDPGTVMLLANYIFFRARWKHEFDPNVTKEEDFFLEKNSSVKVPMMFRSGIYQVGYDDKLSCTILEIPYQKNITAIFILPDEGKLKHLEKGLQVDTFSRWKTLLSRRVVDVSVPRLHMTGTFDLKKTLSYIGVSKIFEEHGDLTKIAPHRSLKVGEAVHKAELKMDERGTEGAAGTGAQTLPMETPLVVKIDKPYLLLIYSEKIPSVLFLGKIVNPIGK
UniProt Q2VWA4: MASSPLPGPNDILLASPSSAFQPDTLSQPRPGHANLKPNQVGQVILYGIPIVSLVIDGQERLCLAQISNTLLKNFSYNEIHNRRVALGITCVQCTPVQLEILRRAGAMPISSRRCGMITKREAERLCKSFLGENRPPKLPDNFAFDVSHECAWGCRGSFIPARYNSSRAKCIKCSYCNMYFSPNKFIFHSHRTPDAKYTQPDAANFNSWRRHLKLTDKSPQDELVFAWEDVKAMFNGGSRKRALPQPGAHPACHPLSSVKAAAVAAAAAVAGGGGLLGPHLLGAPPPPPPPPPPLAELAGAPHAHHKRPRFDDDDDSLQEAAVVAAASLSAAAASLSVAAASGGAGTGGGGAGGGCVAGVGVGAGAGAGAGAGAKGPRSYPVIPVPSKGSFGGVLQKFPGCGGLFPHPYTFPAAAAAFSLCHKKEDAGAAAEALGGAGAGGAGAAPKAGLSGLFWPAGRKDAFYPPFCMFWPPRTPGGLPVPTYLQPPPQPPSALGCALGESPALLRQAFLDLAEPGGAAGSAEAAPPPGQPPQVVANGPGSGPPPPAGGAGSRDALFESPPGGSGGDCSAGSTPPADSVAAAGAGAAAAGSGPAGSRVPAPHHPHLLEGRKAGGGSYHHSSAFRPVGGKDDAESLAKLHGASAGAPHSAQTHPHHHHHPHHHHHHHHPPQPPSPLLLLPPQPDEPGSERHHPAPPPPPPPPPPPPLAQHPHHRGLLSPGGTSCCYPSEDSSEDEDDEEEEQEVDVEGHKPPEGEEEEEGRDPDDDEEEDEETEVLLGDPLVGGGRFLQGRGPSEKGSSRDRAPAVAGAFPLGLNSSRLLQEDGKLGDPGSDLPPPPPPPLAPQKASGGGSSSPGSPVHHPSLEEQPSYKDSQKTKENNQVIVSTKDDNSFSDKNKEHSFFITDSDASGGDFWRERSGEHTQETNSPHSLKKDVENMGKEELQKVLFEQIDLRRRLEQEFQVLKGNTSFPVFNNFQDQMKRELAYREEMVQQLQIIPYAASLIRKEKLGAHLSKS
UniProt Q15464: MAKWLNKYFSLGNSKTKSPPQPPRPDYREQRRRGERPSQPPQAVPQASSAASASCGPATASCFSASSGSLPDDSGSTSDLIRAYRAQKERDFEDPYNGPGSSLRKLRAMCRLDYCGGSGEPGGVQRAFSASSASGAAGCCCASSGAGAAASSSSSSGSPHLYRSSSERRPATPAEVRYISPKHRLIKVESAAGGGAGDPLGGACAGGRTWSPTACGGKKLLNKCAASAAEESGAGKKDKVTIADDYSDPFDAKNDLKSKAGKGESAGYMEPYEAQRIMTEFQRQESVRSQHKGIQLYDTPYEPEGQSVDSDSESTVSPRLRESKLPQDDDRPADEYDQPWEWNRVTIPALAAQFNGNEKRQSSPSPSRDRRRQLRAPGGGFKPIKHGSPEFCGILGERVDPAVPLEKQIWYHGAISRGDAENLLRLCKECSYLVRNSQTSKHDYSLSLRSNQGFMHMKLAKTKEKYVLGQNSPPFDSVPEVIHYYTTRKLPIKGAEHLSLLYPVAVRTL
UniProt P36952: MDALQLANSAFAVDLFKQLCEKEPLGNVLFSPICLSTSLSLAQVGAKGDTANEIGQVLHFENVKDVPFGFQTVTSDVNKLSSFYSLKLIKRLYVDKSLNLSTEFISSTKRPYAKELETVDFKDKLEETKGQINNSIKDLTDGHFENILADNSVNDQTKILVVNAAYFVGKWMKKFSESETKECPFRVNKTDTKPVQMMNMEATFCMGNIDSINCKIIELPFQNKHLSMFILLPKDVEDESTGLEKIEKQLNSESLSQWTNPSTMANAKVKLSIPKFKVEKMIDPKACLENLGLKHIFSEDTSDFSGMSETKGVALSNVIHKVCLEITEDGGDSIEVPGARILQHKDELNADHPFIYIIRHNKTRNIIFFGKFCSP
UniProt Q587I9: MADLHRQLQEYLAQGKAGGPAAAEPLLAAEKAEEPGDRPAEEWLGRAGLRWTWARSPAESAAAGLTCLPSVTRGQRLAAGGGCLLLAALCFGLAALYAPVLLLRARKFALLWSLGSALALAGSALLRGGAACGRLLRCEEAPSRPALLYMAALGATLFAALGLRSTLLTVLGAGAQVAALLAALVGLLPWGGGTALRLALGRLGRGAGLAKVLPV
UniProt Q96HU1: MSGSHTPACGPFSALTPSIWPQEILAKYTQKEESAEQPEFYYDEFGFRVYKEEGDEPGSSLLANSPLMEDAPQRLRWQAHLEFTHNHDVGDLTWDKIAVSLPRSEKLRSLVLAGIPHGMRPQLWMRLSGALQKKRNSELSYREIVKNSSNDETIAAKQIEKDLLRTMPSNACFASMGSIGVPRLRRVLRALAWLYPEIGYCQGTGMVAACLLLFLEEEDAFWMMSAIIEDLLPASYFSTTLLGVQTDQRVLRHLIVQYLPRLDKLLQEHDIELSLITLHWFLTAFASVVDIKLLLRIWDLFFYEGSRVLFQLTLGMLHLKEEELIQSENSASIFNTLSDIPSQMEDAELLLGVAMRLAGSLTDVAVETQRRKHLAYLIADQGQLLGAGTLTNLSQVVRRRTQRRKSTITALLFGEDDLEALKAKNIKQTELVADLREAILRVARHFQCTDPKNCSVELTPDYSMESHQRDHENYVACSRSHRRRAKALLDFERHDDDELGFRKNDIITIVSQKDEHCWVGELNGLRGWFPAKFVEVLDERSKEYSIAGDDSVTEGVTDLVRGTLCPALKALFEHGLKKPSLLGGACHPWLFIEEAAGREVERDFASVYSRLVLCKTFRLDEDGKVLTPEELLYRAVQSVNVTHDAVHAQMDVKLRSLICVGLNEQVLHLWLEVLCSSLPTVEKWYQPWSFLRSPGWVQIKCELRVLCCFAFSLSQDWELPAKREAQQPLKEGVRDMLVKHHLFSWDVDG
UniProt Q96BI1: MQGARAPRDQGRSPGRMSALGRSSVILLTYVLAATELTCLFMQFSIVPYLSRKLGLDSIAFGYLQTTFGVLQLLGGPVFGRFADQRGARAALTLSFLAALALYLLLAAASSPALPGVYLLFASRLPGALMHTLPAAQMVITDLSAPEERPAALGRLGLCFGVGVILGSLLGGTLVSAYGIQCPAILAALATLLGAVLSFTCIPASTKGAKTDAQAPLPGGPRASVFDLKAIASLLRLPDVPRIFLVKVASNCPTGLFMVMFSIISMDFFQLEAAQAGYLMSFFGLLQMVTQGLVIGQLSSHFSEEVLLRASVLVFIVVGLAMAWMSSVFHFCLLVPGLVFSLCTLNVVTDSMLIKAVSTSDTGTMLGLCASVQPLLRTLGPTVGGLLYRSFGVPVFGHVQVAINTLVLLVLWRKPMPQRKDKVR
UniProt Q6IA17: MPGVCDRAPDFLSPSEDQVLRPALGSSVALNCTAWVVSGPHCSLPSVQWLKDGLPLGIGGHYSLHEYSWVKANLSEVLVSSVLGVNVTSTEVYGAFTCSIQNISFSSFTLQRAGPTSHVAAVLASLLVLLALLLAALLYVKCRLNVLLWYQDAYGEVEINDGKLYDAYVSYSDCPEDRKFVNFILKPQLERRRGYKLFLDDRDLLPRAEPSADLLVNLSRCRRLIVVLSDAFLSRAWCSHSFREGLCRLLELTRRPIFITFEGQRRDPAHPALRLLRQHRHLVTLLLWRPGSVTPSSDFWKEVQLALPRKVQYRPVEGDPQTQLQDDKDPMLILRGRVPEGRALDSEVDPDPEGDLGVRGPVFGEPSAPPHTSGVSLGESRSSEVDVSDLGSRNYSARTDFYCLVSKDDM
UniProt Q8NC51: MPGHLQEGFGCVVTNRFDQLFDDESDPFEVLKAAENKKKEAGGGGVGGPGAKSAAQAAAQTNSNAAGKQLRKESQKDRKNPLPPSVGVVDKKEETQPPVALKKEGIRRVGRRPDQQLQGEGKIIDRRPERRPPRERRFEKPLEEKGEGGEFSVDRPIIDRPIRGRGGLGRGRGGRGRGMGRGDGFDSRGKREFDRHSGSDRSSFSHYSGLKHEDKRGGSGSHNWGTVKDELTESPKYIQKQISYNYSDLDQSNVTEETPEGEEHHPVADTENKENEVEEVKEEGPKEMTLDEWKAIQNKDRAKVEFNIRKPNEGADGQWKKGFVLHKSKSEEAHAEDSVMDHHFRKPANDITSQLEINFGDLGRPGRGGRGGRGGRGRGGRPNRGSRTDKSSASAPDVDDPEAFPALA
UniProt Q9Y6P5: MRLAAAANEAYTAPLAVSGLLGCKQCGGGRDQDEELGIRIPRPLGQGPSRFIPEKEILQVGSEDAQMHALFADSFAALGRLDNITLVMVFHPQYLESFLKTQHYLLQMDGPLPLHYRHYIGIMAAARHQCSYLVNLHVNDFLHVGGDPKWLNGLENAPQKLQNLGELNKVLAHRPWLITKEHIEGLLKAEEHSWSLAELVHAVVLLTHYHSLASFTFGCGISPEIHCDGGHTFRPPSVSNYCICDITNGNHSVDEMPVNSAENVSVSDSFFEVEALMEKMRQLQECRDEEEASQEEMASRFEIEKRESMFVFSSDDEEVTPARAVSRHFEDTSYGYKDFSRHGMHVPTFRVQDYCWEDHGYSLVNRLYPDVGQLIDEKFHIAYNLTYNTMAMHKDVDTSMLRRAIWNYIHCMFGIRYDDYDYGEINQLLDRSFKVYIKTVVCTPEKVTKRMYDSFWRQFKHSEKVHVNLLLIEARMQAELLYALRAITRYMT

Columns and labels:
Experiment in all cases: log2 fold change, soluble protein after heating vs DMSO (PISA); higher = thermal stabilisation; K562 lysate, 10 uM; active = over 0.2 and 3.5 SD of the protein, either way, in both replicates (recomputed)
[1] = compound: CS(=O)(=O)CCNCc1ccc(-c2ccc3ncnc(Nc4ccc(OCc5cccc(F)c5)c(Cl)c4)c3c2)o1 [lapatinib]
Outline: (§1)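 To prepare the extract, K562 pellets were dounce-homogenised in PBS pH 7.4 with 1 mM MgCl2, giving crude material at 1 mg/mL protein. This was treated with 10 μM compound for 30 min, then heated in aliquots for 3 min over 48°C-58°C before pooling and addition of NP-40 to 0.5% at 4°C. Centrifugation at 21,000xg for 90 min left soluble protein in the supernatant, which TMTpro 16plex LC-MS/MS quantified with equalised channel sums. Results are log-two fold changes in thermal stability compared with solvent controls, from duplicates.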

[2] = compound: CS(=O)(=O)N1CCN(Cc2cc3nc(-c4cccc5[nH]ncc45)nc(N4CCOCC4)c3s2)CC1 [pictilisib]
Outline: as §1

[3] = compound: C[C@@H](Oc1cc(-c2cnn(C3CCNCC3)c2)cnc1N)c1c(Cl)ccc(F)c1Cl [crizotinib]
Outline: as §1

[4] = compound: C[C@H](C1=CC=C(C=C1)C(=O)NC2=C3C=CNC3=NC=C2)N
Outline: as §1

[5] = compound: C[C@H](Nc1ncnc2nc[nH]c12)c1cc2cccc(Cl)c2c(=O)n1-c1ccccc1 [duvelisib]
Outline: as §1

[6] = compound: Cc1cc(Nc2cc(CN3CCOCC3)c3nc(C)c(Cc4ccc(Cl)cc4F)n3n2)n[nH]1 [gandotinib]
Outline: as §1

[7] = compound: Cc1cc(Nc2cc(N3CCN(C)CC3)nc(Sc3ccc(NC(=O)C4CC4)cc3)n2)n[nH]1 [tozasertib]
Outline: as §1

[8] = compound: Cc1ccc(-n2nc(C(C)(C)C)cc2NC(=O)Nc2ccc(OCCN3CCOCC3)c3ccccc23)cc1 [doramapimod]
Outline: as §1

[9] = compound: Cc1ccc(NC(=O)c2ccc(CN3CC[C@H](N(C)C)C3)c(C(F)(F)F)c2)cc1Nc1nccc(-c2cncnc2)n1 [bafetinib]
Outline: as §1

[10] = compound: Cc1cccc(CC(=O)N2CCc3c2ccc(-c2cn(C)c4ncnc(N)c24)c3F)n1
Outline: as §1

Target | log2 fold change [1] | log2 fold change [2] | log2 fold change [3] | log2 fold change [4] | log2 fold change [5] | log2 fold change [6] | log2 fold change [7] | log2 fold change [8] | log2 fold change [9] | log2 fold change [10]
SHC1 isoform 6 (UniProt P29353) | inactive: 0.019 | inactive: -0.057 | inactive: 0.001 | active: 0.577 | inactive: 0.005 | inactive: -0.106 | inactive: 0.005 | inactive: 0.065 | inactive: -0.034 | inactive: -0.175
SKA1 (UniProt Q96BD8) | inactive: 0.001 | inactive: 0.043 | inactive: 0.009 | inactive: -0.032 | inactive: 0.042 | inactive: 0.001 | inactive: 0.086 | inactive: 0.037 | inactive: -0.029 | inactive: 0.024
SLC1A4 (UniProt P43007) | inactive: -0.032 | inactive: 0.006 | inactive: 0.056 | inactive: -0.042 | inactive: 0.017 | inactive: 0.029 | inactive: 0.004 | inactive: 0.048 | inactive: -0.001 | inactive: -0.018
SERPINB9 (UniProt P50453) | inactive: -0.002 | inactive: -0.001 | inactive: 0.012 | inactive: 0.015 | inactive: -0.008 | inactive: -0.001 | inactive: -0.026 | inactive: -0.009 | inactive: 0.099 | inactive: -0.049
SIRT2 (UniProt Q8IXJ6) | inactive: 0.063 | inactive: 0.128 | inactive: -0.03 | inactive: -0.021 | inactive: 0.013 | inactive: 0.074 | inactive: -0.037 | inactive: 0.082 | inactive: 0.092 | inactive: 0.066
SLC10A7 isoform 1 (UniProt Q0GE19) | inactive: -0.002 | inactive: -0.13 | inactive: -0.05 | inactive: -0.18 | inactive: -0.089 | inactive: 0.096 | inactive: 0.001 | inactive: 0.031 | inactive: -0.095 | inactive: 0.093
SIKE1 (UniProt Q9BRV8) | inactive: 0.003 | inactive: -0.039 | inactive: -0.031 | inactive: 0.047 | inactive: 0.018 | inactive: -0.009 | inactive: 0.036 | inactive: -0.072 | inactive: -0.162 | inactive: -0.053
SHCBP1 (UniProt Q8NEM2) | inactive: 0.061 | inactive: 0.046 | inactive: -0.029 | inactive: -0.043 | inactive: 0.028 | inactive: -0.031 | inactive: 0.059 | inactive: 0.028 | inactive: -0.073 | inactive: 0.078
SHOC2 (UniProt Q9UQ13) | inactive: 0.021 | inactive: -0.032 | inactive: 0.001 | inactive: -0.142 | inactive: -0.003 | inactive: 0.029 | inactive: -0.091 | inactive: -0.001 | inactive: 0.023 | inactive: 0.079
SHARPIN (UniProt Q9H0F6) | inactive: 0.048 |  | inactive: 0.089 |  | inactive: 0.036 |  | inactive: 0.011 | inactive: -0.075 |  | 
SLC19A2 (UniProt O60779) | inactive: -0.163 | inactive: -0.08 |  | inactive: 0.024 | inactive: 0.08 | inactive: 0.072 | inactive: -0.061 |  | inactive: -0.332 | inactive: -0.053
SERPINA12 (UniProt Q8IW75) | inactive: -0.225 | inactive: 0.328 | inactive: 0.009 |  | inactive: 0.073 |  |  | inactive: -0.171 | inactive: -0.058 | 
SKOR2 (UniProt Q2VWA4) | inactive: -0.041 |  | inactive: -0.106 | inactive: -0.388 | inactive: 0.097 | inactive: 0.275 | inactive: -0.019 | inactive: 0.184 |  | inactive: 0.338
SF1 (UniProt H7C0N4) | inactive: 0.131 |  | inactive: 0.01 | inactive: 0.17 |  | inactive: 0.132 | inactive: 0.064 | inactive: 0.058 |  | inactive: 0.036
SF1 isoform 6 (UniProt Q15637) | inactive: 0.08 | inactive: -0.012 |  | inactive: -0.034 | inactive: -0.267 | inactive: 0.122 | inactive: -0.078 |  | inactive: 0.197 | inactive: 0.049
SHB (UniProt Q15464) | inactive: -0.07 |  | inactive: -0.044 | inactive: -0.305 | inactive: -0.034 | inactive: 0.186 |  | inactive: 0.028 |  | inactive: -0.129
SF3B2 (UniProt E9PJ04) | inactive: -0.075 | inactive: -0.017 |  | inactive: 0.082 |  | inactive: -0.063 |  |  | inactive: -0.166 | inactive: 0

Target | log2 fold change [1] | log2 fold change [2] | log2 fold change [3] | log2 fold change [4] | log2 fold change [5] | log2 fold change [6] | log2 fold change [7] | log2 fold change [8] | log2 fold change [9] | log2 fold change [10]
SERPINB5 (UniProt P36952) | inactive: 0.036 | inactive: 0.777 | inactive: -0.05 | inactive: 0 | inactive: -0.274 | inactive: 0.241 |  | inactive: -0.015 | inactive: -0.021 | inactive: -0.199
SKP2 (UniProt Q13309) | inactive: -0.275 |  | inactive: -0.159 | inactive: -0.098 | inactive: -0.024 | inactive: -0.075 | inactive: -0.096 | inactive: -0.024 |  | inactive: 0.104
SHFL (UniProt Q9NUL5) | inactive: 0.044 | inactive: -0.009 | inactive: -0.02 |  | inactive: 0.031 |  | inactive: -0.021 | inactive: -0.139 | inactive: 0.066 | 
SFT2D3 (UniProt Q587I9) | inactive: -0.088 |  | inactive: -0.098 | inactive: -0.282 | inactive: 0.003 | inactive: 0.014 | inactive: 0.024 | inactive: -0.006 |  | inactive: 0.09
SGSM3 isoform 2 (UniProt Q96HU1) | inactive: -0.001 |  | inactive: 0.019 |  |  |  |  | inactive: 0.019 |  | 
SLC22A18 (UniProt Q96BI1) | inactive: 0.072 | inactive: 0.026 | inactive: -0.064 | inactive: -0.094 |  | inactive: 0.147 | inactive: -0.004 | inactive: 0.032 | inactive: -0.001 | inactive: 0.033
SFXN5 (UniProt Q8TD22) | inactive: -0.03 |  | inactive: -0.04 |  | inactive: 0.054 |  | inactive: -0.032 | inactive: -0.003 |  | 
SIGIRR (UniProt Q6IA17) | inactive: 0.04 |  |  | inactive: 0.146 |  | inactive: 0.081 | inactive: -0.19 |  |  | inactive: 0.003
SERBP1 isoform 3 (UniProt Q8NC51) | inactive: -0.028 | inactive: 0.006 | inactive: 0.068 |  | inactive: 0.041 |  | inactive: -0.027 | inactive: 0.103 | inactive: -0.003 | 
SIAH2 (UniProt O43255) | inactive: -0.006 | inactive: 0.035 |  | inactive: -0.11 |  | inactive: 0.027 |  |  | inactive: 0.007 | inactive: 0.02
SIX4 (UniProt Q9UIU6) | inactive: 0.025 | inactive: -0.023 |  | inactive: -0.002 |  | inactive: 0.059 | inactive: 0.287 |  | inactive: -0.097 | inactive: 0.014
SLC12A9 (UniProt Q9BXP2) | inactive: 0.031 | inactive: -0.081 | inactive: -0.039 | inactive: -0.045 | inactive: -0.044 | inactive: -0.034 |  | inactive: -0.011 | inactive: -0.075 | inactive: 0.036
SESN1 isoform 2 (UniProt Q9Y6P5) | inactive: -0.449 | inactive: 0.056 | inactive: -0.318 | inactive: -0.095 |  | inactive: -0.244 | inactive: 0.061 | inactive: -0.056 | inactive: -0.056 | inactive: -0.006
SLC17A5 (UniProt Q9NRA2) | inactive: -0.073 | inactive: 0.231 |  | inactive: -0.041 | inactive: -0.087 | inactive: 0.101 | inactive: -0.008 |  | inactive: 0.004 | inactive: 0.05
SH3BP2 isoform 4 (UniProt P78314) | inactive: -0.135 | active: -0.41 | inactive: -0.021 | inactive: 0.01 | inactive: 0.053 | inactive: -0.02 |  | inactive: 0.057 | inactive: -0.105 | inactive: 0.123
SLC18B1 (UniProt Q6NT16) | inactive: -0.003 |  | inactive: 0.021 | inactive: 0.023 |  | inactive: 0.051 |  | inactive: -0.072 |  | inactive: 0.014

Only log2 fold change [7], log2 fold change [6] and log2 fold change [4] (two entries from above):
Target,log2 fold change [7],log2 fold change [6],log2 fold change [4]
SLC22A18 (UniProt Q96BI1),inactive: -0.004,inactive: 0.147,inactive: -0.094
SFXN5 (UniProt Q8TD22),inactive: -0.032,,
